No constants are given. Whether binding was seen depends on the method and setting. Some entries that bind do so weakly or less than the wild type.
Tests used:
[1] = molecular target: Oct-1 and HCF from HeLa cell nuclear extract, Oct-1 bound to … DNA (human) (UniProt P14859); assay: laser fluorescence quenching assay, VP16 added to HeLa nuclear extract and JD41F/42F
[2] = molecular target: Oct-1 and HCF from HeLa cell nuclear extract, Oct-1 bound to … DNA (human) (UniProt P14859); assay: laser fluorescence quenching assay, VP16 added to HeLa nuclear extract and JD45F/46F

By UniProt entry, the sequences of proteins in these tests, tags left out.
UniProt P06492: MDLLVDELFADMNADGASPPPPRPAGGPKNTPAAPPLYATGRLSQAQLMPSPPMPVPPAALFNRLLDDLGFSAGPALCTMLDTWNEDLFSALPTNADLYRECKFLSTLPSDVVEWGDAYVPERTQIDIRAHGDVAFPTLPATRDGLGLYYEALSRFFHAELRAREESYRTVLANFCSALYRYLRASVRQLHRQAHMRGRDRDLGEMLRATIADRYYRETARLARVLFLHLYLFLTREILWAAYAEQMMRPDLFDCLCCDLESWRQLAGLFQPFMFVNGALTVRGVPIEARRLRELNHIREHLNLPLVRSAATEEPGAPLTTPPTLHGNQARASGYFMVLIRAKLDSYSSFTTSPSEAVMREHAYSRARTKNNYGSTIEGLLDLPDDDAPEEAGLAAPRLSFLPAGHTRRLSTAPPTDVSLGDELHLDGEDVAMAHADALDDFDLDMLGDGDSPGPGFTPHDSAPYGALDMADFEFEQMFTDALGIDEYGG

herpes simplex virus type 1 (HSV-1) protein VP16 (HSV-1 virion extract containing 80% pure VP16) (from UniProt P06492 1-490)
binding [1]: binds
binding [2]: binds

From patent publication US20030022853A1
